These results are taken from article PMC3395635.

This assay concerns the target HIV-1 integrase with a C-terminal biotin acceptor sequence, biotinylated (virus NLXINB) (HIV-1). Kind of assay: pull-down.

Results are given in words; binding and its absence hold for the method and conditions named. Binding seen in cells or lysates may run through a third protein.

B1: MCCA (protein, UniProt Q96RQ3 42-725)
chain: TTATGRNITKVLIANRGEIACRVMRTAKKLGVQTVAVYSEADRNSMHVDMADEAYSIGPAPSQQSYLSMEKIIQVAKTSAAQAIHPGCGFLSENMEFAELCKQEGIIFIGPPPSAIRDMGIKSTSKSIMAAAGVPVVEGYHGEDQSDQCLKEHARRIGYPVMIKAVRGGGGKGMRIVRSEQEFQEQLESARREAKKSFNDDAMLIEKFVDTPRHVEVQVFGDHHGNAVYLFERDCSVQRRHQKIIEEAPAPGIKSEVRKKLGEAAVRAAKAVNYVGAGTVEFIMDSKHNFCFMEMNTRLQVEHPVTEMITGTDLVEWQLRIAAGEKIPLSQEEITLQGHAFEARIYAEDPSNNFMPVAGPLVHLSTPRADPSTRIETGVRQGDEVSVHYDPMIAKLVVWAADRQAALTKLRYSLRQYNIVGLHTNIDFLLNLSGHPEFEAGNVHTDFIPQHHKQLLLSRKAAAKESLCQAALGLILKEKAMTDTFTLQAHDQFSPFSSSSGRRLNISYTRNMTLKDGKNNVAIAVTYNHDGSYSMQIEDKTFQVLGNLYSEGDCTYLKCSVNGVASKAKLIILENTIYLFSKEGSIEIDIPVPKYLSSVSSQETQGGPLAPMTGTIEKVFVKAGDKVKAGDSLMVMIAMKMEHTIKSPKDGTVKKVFYREGAQANRHTPLVEFEEEESDKRESE
modifications: binds endogenous biotin
As to B1, the binding entry was “no binding”.
